Laboratory results: publication PMC11018632, “The CB1 receptor interacts with cereblon and drives cereblon deficiency-associated memory shortfalls” (EMBO Molecular Medicine, 2024)

Chains of the proteins cited; added tags and fusions are not shown. Lines headed by an entry give the natural chain unless they say otherwise; changes in a name come on top.
UniProt P21554: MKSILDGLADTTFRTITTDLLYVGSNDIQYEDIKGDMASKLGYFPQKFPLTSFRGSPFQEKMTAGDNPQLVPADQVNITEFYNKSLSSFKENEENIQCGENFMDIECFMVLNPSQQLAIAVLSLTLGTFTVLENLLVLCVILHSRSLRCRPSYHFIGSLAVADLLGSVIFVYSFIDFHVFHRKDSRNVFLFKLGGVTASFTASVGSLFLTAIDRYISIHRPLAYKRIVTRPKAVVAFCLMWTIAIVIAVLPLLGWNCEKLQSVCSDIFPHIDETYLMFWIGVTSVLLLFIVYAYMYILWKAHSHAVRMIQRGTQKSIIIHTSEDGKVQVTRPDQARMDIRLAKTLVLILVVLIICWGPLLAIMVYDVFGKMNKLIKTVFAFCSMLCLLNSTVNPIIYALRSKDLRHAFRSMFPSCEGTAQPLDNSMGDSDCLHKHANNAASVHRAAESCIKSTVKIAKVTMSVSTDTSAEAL
UniProt Q96SW2: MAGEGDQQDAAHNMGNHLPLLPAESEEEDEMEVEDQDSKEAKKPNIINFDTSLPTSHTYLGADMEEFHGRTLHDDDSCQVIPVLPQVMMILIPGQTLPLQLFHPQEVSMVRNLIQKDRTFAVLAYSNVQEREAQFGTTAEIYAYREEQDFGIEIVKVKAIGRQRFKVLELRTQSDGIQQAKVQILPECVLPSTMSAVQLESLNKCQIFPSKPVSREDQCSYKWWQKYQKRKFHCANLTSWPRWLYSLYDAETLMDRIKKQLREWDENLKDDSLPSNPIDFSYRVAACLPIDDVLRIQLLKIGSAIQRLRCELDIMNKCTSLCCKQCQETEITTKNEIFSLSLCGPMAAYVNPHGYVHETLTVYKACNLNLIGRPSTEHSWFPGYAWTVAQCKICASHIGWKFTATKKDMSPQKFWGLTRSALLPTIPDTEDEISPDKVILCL
UniProt Q13619: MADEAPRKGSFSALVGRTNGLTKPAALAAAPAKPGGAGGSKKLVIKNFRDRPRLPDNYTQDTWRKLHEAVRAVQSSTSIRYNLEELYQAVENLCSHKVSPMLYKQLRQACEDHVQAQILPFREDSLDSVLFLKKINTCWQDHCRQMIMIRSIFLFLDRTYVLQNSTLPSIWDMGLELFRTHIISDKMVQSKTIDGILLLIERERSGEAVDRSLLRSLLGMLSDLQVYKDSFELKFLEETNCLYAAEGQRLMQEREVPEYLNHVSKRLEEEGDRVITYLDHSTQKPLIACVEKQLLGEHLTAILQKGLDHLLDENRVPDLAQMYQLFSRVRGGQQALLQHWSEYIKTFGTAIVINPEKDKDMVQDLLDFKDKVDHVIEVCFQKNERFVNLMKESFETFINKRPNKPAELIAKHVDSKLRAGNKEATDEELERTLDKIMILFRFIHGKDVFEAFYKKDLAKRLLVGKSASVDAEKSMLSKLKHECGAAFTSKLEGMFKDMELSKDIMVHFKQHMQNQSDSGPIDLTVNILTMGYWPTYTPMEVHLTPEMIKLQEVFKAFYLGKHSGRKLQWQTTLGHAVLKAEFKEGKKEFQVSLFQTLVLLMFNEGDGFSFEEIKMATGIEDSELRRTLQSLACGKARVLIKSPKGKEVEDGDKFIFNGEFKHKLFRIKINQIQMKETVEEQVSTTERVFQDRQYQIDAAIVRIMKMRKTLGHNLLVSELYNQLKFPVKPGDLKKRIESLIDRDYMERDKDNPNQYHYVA

Tests used:
[1] = target: human 3xFLAG-CB1R (human) (UniProt P21554); assay: co-IP; HEK-293T cells, transfected; lysates in GST buffer (50 mM Tris-HCl, 10% glycerol, 100 mM NaCl, 2 mM MgCl2, 1% NP-40, pH 7.4); IP with anti-FLAG M2 agarose
[2] = target: human HA-CRBN-ΔRGS (human) (UniProt Q96SW2); assay: co-IP; HEK-293T cells, transfected; lysates in GST buffer (50 mM Tris-HCl, 10% glycerol, 100 mM NaCl, 2 mM MgCl2, 1% NP-40, pH 7.4); IP with anti-HA agarose

binding [1] | binding [2] | Substance
binds | – | human HA-CRBN-ΔRGS (from UniProt Q96SW2)
– | no binding | V5-tagged human Cullin-4a (from UniProt Q13619 1-759)

Results are given in words; binding and its absence hold for the method and conditions named. In cells and extracts the contact can be indirect. For some assays here: A result given as binding can be weak or reduced; the word gives no strength.
